This list was built around the results that the source calls inconclusive (neither active nor inactive); the mix of calls is not that of the screen. Where the call is inconclusive, the potency comes from a doubtful curve fit. Calls of active or inactive are those of the source. The call rests on the fitted dose curve; in most records, active means well fitted cell-killing curve with a large enough effect; inconclusive means small, poorly fitted or top-dose-only effect, or effect the other way; inactive means no such curve, though single readings can be large or run the other way.
assay: Quantitative High-Throughput drug screen in 47 multiple myeloma cell lines against the NCATS MIPE library collection: Karpas417_ECACC cell viability assay (AID 1918961); settings: Karpas417 myeloma viability, CellTiter-Glo ATP luminescence, 48 h; series mostly up to 45.8 µM
How it was run: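 Viability readout: CellTiter-Glo luminescence following 5 min room-temperature incubation with reagent. Prior exposure: 48 h, 37C, humidified 5% CO2, 500 cells per well.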
Potency means the concentration at half of the fitted maximal effect.

**Q.** With `CCC(=C(c1ccc(O)cc1)c1ccc(OCCNC)cc1)c1ccccc1` as the compound, how does the Potency read?
**A.** inconclusive: 37.2 µM [cytotoxic, partial curve, poor fit]

**Q.** With `O=C(NOC[C@H](O)CO)c1ccc(F)c(F)c1Nc1ccc(I)cc1F` as the compound, how does the Potency read?
**A.** active: 0.0469 µM

**Q.** With `CNC(=O)c1cc(Oc2ccc(NC(=O)Nc3ccc(Cl)c(C(F)(F)F)c3)cc2)ccn1` as the compound, how does the Potency read?
**A.** inconclusive: 5.26 µM [cytotoxic, partial curve, poor fit]

**Q.** With `NCCCC(N)(C(=O)O)C(F)F` (configuration not stated) as the compound, how does the Potency read?
**A.** inconclusive: 0.118 µM [cytotoxic, full curve, poor fit]

**Q.** Which Potency does the source give for `NS(=O)(=O)c1cc(Cl)c(Cl)c(S(N)(=O)=O)c1` here?
**A.** inactive

**Q.** With `N#CC(c1ccc(Cl)cc1)c1c(Cl)cc(-n2ncc(=O)[nH]c2=O)cc1Cl` (configuration not stated) as the compound, how does the Potency read?
**A.** inconclusive: 14.8 µM [cytotoxic, partial curve, poor fit]

**Q.** Which Potency does the source give for `COc1cc2ncnc(Nc3ccc(F)c(Cl)c3)c2cc1NC(=O)C=CCN1CCCCC1` here?
**A.** inconclusive: 5.26 µM [cytotoxic, partial curve, poor fit]

**Q.** For `C=CC(=O)N1CCc2ccc(-n3c(=O)ccc4cnc5ccc(-c6cnn(C)c6)cc5c43)cc21`, which Potency is on record?
**A.** active: 0.935 µM

**Q.** Which Potency does the source give for `Cc1ccc(C(=O)Nc2ccc(CN3CCN(C)CC3)c(C(F)(F)F)c2)cc1C#Cc1cnc2cccnn12` here?
**A.** active: 0.469 µM

**Q.** Which Potency does the source give for `CN1CCN(c2cc(C(=O)Nc3ccc4c(c3)-c3c(c(C(N)=O)nn3-c3ccc(F)cc3)CC4)c(Cl)cn2)CC1` here?
**A.** inconclusive: 3.72 µM [cytotoxic, full curve, poor fit]

**Q.** For `C[C@@H]1[C@H](C)CC[C@]2(C(=O)O)CC[C@]3(C)C(=CC[C@@H]4[C@@]5(C)C[C@@H](O)[C@H](O)[C@@](C)(CO)[C@H]5CC[C@]43C)[C@@H]12`, which Potency is on record?
**A.** inconclusive: 0.0037 µM [cytotoxic, full curve, poor fit]

**Q.** With `C=CC[C@@H]1C=C(C)C[C@H](C)C[C@H](OC)[C@H]2O[C@@](O)(C(=O)C(=O)N3CCCC[C@H]3C(=O)O[C@H](C(C)=C[C@@H]3CC[C@H](O)[C@H](OC)C3)[C@@H](C)[C@@H](O)CC1=O)[C@@H](C)C[C@@H]2OC` as the compound, how does the Potency read?
**A.** inconclusive: 0.264 µM [cytotoxic, full curve, poor fit]

**Q.** Which Potency does the source give for `Cc1c(CN2CCN(S(C)(=O)=O)CC2)sc2c(N3CCOCC3)nc(-c3cnc(N)nc3)nc12` here?
**A.** inconclusive: 0.0166 µM [cytotoxic, full curve]

**Q.** Which Potency does the source give for `CC(NCCc1ccc(O)cc1)C(O)c1ccc(O)cc1` (configuration not stated) here?
**A.** inactive

**Q.** For `CC(C)c1onc(-c2c(Cl)cccc2Cl)c1COc1ccc(C=Cc2cccc(C(=O)O)c2)c(Cl)c1`, which Potency is on record?
**A.** inconclusive: 7.43 µM [rising, full curve, poor fit]

**Q.** Which Potency does the source give for `Nc1ccc(C(=O)c2cc3c(ccc4ccccc43)[nH]2)cc1` here?
**A.** inconclusive: 37.2 µM [rising, partial curve, poor fit]

**Q.** Which Potency does the source give for `N#CC(=C(N)Sc1ccc(N)cc1)c1ccccc1C(F)(F)F` here?
**A.** inconclusive: 11.8 µM [rising, full curve, poor fit]

**Q.** For `O=C(CN1C(=O)C2(CCCC2)NC[C@H]1c1cc(F)cc(F)c1)Nc1ccc2c(c1)C[C@@]1(C2)C(=O)Nc2ncccc21`, which Potency is on record?
**A.** inactive

**Q.** For `O=C(O)c1cccnc1`, which Potency is on record?
**A.** inactive

**Q.** For `CCC(=O)O[C@]1(C(=O)SCF)[C@H](C)C[C@H]2[C@@H]3C[C@H](F)C4=CC(=O)C=C[C@]4(C)[C@@]3(F)[C@@H](O)C[C@@]21C`, which Potency is on record?
**A.** inactive

**Q.** For `C[C@@H]1CC(=O)NN=C1c1ccc(NN=C(C#N)C#N)cc1`, which Potency is on record?
**A.** inconclusive: 9.35 µM [rising, full curve, poor fit]

**Q.** Which Potency does the source give for `Cc1csc(-c2nnc(Nc3ccc(Oc4ncccc4-c4ccnc(N)n4)cc3)c3ccccc23)c1` here?
**A.** inconclusive: 46.9 µM [cytotoxic, partial curve, poor fit]

**Q.** Which Potency does the source give for `O=c1[nH]cnc2[nH]ncc12` here?
**A.** inactive

**Q.** With `COc1nc(C)nc(Cl)c1NC1=NCCN1` as the compound, how does the Potency read?
**A.** inconclusive: 0.0015 µM [cytotoxic, full curve, poor fit]

**Q.** Which Potency does the source give for `Nc1cccc2c1CN(C1CCC(=O)NC1=O)C2=O` (configuration not stated) here?
**A.** inconclusive: 67.9 µM [rising, partial curve, poor fit]

**Q.** Which Potency does the source give for `Cc1cnc(Nc2ccc(N3CCN(C)CC3)cc2)nc1Nc1cccc(S(=O)(=O)NC(C)(C)C)c1` here?
**A.** active: 0.372 µM

**Q.** With `CCn1c(-c2nonc2N)nc2c(C#CC(C)(C)O)ncc(OC[C@H]3CCCNC3)c21` as the compound, how does the Potency read?
**A.** inconclusive: 0.0662 µM [cytotoxic, full curve, poor fit]
